Results are given in words; binding and its absence hold for the method and conditions named. Binding seen in cells or lysates may run through a third protein. These calls come from enrichment with a bait or labelling near it, and not all partners need be listed. Where a sequence is shown, tags or fusion partners need not be part of it.
Target: T1, FLAG-CXXC5 (UniProt Q7LFL8)
T1 sequence: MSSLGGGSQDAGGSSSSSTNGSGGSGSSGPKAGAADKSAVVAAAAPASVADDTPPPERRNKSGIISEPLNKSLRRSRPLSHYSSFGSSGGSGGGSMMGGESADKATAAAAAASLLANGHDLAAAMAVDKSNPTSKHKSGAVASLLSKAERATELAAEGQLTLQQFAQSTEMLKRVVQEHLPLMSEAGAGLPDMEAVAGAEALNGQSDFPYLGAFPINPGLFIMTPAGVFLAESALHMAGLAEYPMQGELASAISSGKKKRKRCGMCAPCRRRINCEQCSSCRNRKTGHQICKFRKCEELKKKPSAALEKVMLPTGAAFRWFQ
Assay: affinity purification with mass spectrometry; lysate of MCF-7 cells stably expressing FLAG-CXXC5 on an anti-FLAG M2 affinity gel column, eluted with FLAG peptide, gel bands silver stained and analysed by LC-MS/MS

By UniProt entry, the sequences of proteins in these tests, tags left out.
UniProt Q16531: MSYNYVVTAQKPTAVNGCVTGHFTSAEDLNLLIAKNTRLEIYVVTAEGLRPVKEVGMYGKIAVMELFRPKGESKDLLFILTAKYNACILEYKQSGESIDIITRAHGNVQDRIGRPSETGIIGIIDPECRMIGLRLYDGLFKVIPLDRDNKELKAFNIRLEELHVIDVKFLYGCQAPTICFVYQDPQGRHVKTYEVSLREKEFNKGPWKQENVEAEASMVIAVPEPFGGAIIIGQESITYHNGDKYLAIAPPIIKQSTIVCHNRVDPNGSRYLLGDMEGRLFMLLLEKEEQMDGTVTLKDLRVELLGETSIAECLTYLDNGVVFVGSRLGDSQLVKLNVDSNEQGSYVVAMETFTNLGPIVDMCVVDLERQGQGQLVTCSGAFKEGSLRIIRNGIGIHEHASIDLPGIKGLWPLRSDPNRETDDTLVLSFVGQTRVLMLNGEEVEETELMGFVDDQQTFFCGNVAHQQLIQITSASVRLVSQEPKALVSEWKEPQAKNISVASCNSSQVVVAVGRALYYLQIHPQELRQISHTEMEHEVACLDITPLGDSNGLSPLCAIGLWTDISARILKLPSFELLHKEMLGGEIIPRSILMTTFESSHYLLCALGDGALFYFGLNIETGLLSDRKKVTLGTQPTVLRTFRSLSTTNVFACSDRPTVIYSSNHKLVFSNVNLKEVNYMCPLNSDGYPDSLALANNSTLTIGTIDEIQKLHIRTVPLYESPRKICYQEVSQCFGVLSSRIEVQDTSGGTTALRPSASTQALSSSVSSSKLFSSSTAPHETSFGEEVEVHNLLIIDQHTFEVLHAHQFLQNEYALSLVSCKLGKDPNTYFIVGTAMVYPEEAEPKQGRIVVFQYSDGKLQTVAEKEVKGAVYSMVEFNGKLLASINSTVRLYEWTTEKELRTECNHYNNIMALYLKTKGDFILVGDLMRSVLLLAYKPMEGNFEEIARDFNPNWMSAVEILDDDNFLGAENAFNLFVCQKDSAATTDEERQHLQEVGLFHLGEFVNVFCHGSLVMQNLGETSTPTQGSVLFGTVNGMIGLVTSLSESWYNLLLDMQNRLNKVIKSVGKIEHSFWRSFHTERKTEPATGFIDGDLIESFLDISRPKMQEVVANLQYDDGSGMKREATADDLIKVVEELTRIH
UniProt P13010: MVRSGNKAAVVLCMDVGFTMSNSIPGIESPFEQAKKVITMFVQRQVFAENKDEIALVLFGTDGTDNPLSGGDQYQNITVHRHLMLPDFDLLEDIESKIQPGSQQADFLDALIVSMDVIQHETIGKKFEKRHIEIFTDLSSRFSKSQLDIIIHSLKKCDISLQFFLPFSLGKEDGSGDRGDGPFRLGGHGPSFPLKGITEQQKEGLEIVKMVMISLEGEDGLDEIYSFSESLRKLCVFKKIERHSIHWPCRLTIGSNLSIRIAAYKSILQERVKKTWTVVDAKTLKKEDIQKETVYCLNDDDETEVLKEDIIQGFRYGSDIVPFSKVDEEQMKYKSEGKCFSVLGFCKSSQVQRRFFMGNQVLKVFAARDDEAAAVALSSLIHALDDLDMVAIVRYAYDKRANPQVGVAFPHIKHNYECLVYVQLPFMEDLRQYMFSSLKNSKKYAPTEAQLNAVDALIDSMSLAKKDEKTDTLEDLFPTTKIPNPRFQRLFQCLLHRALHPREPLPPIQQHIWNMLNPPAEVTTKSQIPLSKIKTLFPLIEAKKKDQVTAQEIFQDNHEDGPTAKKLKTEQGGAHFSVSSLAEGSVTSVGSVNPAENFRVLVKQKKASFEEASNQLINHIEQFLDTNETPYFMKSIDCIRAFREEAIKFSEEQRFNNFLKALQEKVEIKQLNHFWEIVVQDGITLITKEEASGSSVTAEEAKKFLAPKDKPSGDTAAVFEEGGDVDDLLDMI
UniProt Q14839: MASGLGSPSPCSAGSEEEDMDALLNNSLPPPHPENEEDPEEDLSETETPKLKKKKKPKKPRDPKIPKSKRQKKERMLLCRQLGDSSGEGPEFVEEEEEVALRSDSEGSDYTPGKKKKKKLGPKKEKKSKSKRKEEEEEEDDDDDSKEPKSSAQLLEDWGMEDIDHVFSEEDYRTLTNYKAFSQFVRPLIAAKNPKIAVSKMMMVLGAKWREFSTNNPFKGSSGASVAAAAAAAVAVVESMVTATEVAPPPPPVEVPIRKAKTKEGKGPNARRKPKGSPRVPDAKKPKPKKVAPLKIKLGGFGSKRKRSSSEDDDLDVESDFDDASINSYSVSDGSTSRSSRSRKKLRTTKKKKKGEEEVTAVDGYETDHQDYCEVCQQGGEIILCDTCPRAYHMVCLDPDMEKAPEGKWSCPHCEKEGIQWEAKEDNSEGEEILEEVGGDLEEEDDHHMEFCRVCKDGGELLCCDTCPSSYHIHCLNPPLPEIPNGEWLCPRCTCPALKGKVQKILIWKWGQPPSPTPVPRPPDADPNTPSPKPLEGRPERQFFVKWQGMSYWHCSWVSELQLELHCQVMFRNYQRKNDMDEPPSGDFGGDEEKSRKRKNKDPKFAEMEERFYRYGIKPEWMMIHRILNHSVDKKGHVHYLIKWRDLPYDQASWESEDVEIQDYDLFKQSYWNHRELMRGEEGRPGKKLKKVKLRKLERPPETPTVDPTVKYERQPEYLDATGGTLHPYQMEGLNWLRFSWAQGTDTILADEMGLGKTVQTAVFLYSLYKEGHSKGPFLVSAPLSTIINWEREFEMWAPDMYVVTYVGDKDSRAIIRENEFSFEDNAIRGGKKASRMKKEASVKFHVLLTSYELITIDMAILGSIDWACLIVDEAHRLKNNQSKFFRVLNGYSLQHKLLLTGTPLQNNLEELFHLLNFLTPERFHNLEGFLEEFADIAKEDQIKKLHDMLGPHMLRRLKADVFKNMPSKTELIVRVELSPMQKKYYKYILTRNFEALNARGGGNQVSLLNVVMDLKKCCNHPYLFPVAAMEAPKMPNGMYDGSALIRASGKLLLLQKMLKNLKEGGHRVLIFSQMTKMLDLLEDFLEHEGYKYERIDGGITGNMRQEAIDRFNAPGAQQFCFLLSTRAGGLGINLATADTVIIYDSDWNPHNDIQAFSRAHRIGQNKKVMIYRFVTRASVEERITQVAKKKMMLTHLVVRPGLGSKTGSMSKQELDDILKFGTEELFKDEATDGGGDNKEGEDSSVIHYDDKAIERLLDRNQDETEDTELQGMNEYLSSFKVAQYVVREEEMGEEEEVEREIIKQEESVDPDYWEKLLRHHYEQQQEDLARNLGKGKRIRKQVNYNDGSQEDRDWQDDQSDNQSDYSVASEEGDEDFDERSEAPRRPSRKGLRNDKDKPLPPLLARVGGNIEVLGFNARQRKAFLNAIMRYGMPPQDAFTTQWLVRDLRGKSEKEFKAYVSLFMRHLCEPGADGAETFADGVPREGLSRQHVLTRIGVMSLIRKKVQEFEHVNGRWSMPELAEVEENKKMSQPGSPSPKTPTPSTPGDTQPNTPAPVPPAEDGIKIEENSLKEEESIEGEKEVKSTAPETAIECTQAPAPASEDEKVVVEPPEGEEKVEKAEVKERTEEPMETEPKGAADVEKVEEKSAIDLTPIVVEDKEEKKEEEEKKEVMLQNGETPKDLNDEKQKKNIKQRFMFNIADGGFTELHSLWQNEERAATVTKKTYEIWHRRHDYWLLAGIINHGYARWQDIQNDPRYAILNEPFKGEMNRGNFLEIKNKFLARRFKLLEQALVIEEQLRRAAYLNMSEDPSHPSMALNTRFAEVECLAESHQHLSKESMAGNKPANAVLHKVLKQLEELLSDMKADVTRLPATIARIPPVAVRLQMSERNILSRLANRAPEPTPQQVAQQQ
UniProt P67809: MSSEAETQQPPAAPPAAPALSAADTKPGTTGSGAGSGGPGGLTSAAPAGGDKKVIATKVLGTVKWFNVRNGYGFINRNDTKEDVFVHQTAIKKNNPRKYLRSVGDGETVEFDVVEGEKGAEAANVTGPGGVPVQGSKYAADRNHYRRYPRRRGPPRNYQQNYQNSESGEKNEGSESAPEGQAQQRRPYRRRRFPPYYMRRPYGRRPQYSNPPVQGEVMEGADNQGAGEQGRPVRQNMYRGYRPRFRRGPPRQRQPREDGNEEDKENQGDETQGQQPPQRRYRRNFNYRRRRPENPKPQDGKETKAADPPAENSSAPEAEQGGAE
UniProt Q13620: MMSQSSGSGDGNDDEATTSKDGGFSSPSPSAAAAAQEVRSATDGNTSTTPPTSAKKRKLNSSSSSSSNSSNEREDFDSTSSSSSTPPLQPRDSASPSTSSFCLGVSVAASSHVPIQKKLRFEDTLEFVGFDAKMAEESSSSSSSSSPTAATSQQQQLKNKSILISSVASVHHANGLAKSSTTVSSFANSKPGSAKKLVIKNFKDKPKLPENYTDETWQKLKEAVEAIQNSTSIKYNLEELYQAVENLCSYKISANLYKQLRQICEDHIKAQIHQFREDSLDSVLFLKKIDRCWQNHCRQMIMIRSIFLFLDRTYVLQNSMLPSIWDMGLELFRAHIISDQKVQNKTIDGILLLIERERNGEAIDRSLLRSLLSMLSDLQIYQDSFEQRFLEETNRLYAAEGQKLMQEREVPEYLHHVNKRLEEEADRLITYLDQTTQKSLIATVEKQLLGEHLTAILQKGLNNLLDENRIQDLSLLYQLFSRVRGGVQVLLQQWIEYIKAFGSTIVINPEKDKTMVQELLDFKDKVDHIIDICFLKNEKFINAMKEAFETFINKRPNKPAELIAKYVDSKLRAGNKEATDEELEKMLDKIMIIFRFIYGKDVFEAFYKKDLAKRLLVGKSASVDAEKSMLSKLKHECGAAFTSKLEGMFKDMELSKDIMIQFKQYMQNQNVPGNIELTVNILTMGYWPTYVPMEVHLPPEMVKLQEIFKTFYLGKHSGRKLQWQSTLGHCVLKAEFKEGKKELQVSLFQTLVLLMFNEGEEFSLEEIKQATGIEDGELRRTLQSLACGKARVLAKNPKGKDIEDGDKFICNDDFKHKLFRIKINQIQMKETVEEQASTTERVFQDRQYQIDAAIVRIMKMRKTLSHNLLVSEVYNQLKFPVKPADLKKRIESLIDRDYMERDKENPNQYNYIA
UniProt P26038: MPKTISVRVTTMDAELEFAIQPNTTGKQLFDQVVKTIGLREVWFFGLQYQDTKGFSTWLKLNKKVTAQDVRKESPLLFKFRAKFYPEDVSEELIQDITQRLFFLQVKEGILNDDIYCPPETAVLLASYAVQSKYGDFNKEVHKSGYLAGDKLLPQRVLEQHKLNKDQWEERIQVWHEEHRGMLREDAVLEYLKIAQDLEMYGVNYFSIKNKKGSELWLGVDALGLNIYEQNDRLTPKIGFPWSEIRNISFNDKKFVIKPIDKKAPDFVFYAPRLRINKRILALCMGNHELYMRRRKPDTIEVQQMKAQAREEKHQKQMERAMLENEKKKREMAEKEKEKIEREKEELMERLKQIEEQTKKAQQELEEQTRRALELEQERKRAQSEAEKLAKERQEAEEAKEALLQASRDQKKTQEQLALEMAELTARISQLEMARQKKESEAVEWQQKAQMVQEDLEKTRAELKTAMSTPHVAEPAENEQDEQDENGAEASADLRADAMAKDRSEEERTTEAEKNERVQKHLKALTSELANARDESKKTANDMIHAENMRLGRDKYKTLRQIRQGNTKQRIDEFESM
UniProt Q92769: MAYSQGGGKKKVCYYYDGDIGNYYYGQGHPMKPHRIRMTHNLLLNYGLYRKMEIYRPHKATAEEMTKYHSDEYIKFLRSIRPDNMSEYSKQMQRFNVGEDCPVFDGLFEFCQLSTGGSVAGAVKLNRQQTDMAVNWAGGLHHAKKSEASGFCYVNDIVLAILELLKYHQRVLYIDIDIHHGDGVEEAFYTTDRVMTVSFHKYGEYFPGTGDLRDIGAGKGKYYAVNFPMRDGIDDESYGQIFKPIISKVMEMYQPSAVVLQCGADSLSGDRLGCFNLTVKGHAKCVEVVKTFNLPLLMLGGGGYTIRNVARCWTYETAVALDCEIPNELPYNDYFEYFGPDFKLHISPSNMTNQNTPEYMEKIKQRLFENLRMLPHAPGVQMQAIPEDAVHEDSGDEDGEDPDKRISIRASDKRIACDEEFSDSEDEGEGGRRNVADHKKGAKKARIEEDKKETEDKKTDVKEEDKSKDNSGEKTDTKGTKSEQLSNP
UniProt Q09028: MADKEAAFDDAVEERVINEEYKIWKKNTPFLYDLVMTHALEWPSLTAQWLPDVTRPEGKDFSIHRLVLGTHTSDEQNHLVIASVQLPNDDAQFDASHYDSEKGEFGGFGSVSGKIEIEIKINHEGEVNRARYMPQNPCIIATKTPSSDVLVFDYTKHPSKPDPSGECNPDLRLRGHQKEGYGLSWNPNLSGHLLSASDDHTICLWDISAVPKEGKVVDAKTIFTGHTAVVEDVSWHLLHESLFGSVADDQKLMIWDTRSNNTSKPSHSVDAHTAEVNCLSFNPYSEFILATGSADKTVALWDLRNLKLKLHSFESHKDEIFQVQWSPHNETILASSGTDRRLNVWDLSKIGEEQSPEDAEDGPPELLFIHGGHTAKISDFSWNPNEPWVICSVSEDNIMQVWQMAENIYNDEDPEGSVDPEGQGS

Substance | binding
DDB1 (from UniProt Q16531 1-1140) | binds
XRCC5 (from UniProt P13010 1-732) | binds
CHD4 (from UniProt Q14839 1-1912) | binds
YBX1 (from UniProt P67809 1-324) | binds
CUL4B (from UniProt Q13620 1-913) | binds

Results, then the substance that gave them:

binding | Substance
binds | MSN (from UniProt P26038 1-577)
binds | HDAC2 (from UniProt Q92769 1-488)
binds | RbAp48 (from UniProt Q09028 1-425)

From publication PMC9860500
